Results are given in words; binding and its absence hold for the method and conditions named. Some binding calls cover weakened binding; strength is not graded here. Tags and fused reporters may be left off the sequences shown.
Tests used:
[1] = target: T1, GST-murine loricrin_(1–480) (murine) (UniProt P18165); experiment: bacterial adherence to immobilised protein (crystal violet); GST-tagged protein (1 µM or 0.5 µM) coated on microtitre wells, blocked with BSA; bacteria (OD600 = 1.0 in PBS) 2 h at 37°C; absorbance at 570 nm; only the target purified
T1 sequence: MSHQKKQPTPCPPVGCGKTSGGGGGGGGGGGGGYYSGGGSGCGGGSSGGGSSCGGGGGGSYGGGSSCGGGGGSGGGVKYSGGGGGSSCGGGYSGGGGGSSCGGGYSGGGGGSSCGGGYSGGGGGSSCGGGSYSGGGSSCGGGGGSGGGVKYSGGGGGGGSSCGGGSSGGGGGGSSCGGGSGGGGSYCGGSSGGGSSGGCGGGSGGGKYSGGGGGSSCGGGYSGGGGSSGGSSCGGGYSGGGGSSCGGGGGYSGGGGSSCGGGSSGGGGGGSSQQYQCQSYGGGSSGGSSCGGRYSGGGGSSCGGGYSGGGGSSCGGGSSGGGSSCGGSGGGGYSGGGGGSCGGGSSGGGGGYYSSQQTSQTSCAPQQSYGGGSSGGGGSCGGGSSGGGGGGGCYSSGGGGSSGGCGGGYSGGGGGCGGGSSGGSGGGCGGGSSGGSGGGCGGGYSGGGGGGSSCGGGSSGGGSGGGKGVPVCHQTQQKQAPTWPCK

By UniProt entry, the sequences of proteins in these tests, tags left out. Where a name states a change or a piece, a line headed by the entry shows the natural chain unless it says otherwise.
UniProt O86476: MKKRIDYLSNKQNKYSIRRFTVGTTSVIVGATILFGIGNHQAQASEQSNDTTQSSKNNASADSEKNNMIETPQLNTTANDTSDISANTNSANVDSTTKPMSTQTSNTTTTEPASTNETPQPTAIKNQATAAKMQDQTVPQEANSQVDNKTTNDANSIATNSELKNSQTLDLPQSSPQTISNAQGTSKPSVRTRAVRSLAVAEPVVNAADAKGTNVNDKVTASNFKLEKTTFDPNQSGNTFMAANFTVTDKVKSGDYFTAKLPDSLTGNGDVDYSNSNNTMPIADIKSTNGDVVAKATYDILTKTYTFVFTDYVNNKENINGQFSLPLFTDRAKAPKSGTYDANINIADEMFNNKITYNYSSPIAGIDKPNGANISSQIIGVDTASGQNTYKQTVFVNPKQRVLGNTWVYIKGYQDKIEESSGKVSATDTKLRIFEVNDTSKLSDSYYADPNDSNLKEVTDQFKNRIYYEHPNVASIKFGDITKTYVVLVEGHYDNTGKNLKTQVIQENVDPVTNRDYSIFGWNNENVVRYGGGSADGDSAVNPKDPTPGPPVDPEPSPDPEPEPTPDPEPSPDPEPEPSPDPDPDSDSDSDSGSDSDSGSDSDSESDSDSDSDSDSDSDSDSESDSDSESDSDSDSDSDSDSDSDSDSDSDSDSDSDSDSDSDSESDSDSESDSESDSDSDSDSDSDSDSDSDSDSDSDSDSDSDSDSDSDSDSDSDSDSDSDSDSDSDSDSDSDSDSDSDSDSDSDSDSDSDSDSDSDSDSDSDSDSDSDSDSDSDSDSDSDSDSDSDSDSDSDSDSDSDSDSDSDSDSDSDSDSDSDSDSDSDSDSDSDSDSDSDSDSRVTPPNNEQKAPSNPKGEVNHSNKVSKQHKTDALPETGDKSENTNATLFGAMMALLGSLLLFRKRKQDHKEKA

[2] = target: T2, GST-murine K10_(454–570) (murine) (UniProt P02535); experiment: as above
T2 sequence: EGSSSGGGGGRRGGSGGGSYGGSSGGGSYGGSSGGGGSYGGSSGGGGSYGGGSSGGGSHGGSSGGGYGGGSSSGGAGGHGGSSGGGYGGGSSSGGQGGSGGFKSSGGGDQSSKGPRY

[3] = target: T3, GST-human loricrin_(1–315) (human) (UniProt P23490); experiment: as above
T3 sequence: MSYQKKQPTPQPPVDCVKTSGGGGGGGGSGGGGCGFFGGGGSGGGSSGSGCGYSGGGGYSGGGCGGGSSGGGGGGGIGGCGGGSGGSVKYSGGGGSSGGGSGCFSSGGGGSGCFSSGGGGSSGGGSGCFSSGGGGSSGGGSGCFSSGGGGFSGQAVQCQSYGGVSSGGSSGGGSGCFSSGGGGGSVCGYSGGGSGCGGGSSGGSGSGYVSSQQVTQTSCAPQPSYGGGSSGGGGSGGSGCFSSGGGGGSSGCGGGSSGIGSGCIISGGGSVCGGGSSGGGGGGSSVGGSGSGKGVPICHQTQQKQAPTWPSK

[4] = target: T3, GST-human loricrin_(1–315) (human); experiment: bacterial adherence to immobilised protein (crystal violet); S. aureus Newman (1×10^8 CFU) pre-incubated with GST or HK10 (2 µM) in PBS 30 min at room temperature, then 90 min at room temperature on loricrin-coated wells (0.5 µM); only the target purified
[5] = target: T3, GST-human loricrin_(1–315) (human); experiment: ELISA; loricrin-coated wells (0.5 µM); rClfB N23_(201–542) (3 µM) pre-incubated with GST, HK10 or L2v (14 µM) in PBS 1 h at room temperature, then 1 h at 37°C on the wells; detected with HRP-conjugated anti-His antibodies; both purified

Substance	binding [1]	binding [2]	binding [3]	binding [4]	binding [5]
Clumping factor B (ClfB) expressed on the surface of L. lactis (from UniProt O86476 45-877)	binds	binds	binds	–	–
Clumping factor B (ClfB) on the surface of S. aureus Newman (from UniProt O86476 45-877)	binds	binds	binds	binds	–
Recombinant ClfB N2N3 (rClfB_(201–542)) (from UniProt O86476 201-542) (domain or fragment)	–	–	–	–	binds

— paper PMC3531522, “Nasal Colonisation by Staphylococcus aureus Depends upon Clumping Factor B Binding to the Squamous Epithelial Cell Envelope Protein Loricrin” (PLoS Pathogens, 2012)
